The supplement of paper PMC12823440, “Inhibitors supercharge kinase turnover through native proteolytic circuits” (Nature, 2025)
This is one part of the list. The calls rarely recur for the same compound in another form.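 In K562 cells expressing nanoluciferase-fused kinases, luminescence was recorded at 4 h intervals between 2 and 18 h, normalized as percent of control with DMSO at 100% and a positive control at 0%. A significant (2 sigma) signal drop marks a time point as decreased. The authors' rule for a hit is not shown and takes in more than the number of time points.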

Amino acid sequences for entries named in this document (tags omitted). A change or cut given only in a name is not applied to a line headed by its entry.
UniProt P00519, whole entry: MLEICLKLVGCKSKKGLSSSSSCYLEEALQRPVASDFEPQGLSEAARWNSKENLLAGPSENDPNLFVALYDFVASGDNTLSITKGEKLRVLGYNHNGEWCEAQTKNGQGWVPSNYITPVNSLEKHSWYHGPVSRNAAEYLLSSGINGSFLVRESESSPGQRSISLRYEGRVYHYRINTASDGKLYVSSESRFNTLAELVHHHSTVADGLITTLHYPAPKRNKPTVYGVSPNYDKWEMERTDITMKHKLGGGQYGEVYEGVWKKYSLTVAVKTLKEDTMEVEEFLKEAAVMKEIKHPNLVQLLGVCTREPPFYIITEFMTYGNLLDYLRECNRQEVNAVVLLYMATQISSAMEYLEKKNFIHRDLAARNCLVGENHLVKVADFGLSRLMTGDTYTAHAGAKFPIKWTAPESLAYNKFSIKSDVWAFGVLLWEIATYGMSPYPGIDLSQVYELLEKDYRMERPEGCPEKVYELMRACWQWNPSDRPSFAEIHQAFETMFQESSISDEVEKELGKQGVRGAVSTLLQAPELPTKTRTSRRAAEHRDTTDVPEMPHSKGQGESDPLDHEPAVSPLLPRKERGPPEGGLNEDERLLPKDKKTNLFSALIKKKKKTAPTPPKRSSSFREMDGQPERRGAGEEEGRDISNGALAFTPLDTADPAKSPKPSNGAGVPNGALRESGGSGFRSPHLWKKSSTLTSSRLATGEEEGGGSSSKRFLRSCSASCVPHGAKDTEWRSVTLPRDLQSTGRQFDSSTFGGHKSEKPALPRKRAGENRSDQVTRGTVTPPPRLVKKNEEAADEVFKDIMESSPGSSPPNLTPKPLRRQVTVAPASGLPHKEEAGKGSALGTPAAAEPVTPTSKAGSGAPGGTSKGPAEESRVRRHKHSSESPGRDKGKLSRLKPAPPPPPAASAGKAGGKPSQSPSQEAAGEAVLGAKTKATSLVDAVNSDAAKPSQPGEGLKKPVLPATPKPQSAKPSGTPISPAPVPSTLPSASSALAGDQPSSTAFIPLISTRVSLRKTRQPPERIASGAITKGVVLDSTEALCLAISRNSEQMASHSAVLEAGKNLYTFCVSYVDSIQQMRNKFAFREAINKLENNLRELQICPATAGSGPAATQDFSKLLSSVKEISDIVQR
UniProt P31749: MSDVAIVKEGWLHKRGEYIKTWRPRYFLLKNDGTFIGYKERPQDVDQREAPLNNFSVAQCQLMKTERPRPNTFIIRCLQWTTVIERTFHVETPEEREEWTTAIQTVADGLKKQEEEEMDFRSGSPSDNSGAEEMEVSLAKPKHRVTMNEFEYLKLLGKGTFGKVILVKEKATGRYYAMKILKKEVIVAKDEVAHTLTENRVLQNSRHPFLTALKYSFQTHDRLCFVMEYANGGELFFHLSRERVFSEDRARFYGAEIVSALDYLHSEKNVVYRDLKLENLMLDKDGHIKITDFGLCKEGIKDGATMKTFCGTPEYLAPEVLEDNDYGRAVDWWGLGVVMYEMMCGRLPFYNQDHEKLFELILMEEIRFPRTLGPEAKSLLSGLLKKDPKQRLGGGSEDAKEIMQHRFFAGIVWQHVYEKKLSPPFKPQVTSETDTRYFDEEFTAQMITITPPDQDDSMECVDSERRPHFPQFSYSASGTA
UniProt Q9UM73: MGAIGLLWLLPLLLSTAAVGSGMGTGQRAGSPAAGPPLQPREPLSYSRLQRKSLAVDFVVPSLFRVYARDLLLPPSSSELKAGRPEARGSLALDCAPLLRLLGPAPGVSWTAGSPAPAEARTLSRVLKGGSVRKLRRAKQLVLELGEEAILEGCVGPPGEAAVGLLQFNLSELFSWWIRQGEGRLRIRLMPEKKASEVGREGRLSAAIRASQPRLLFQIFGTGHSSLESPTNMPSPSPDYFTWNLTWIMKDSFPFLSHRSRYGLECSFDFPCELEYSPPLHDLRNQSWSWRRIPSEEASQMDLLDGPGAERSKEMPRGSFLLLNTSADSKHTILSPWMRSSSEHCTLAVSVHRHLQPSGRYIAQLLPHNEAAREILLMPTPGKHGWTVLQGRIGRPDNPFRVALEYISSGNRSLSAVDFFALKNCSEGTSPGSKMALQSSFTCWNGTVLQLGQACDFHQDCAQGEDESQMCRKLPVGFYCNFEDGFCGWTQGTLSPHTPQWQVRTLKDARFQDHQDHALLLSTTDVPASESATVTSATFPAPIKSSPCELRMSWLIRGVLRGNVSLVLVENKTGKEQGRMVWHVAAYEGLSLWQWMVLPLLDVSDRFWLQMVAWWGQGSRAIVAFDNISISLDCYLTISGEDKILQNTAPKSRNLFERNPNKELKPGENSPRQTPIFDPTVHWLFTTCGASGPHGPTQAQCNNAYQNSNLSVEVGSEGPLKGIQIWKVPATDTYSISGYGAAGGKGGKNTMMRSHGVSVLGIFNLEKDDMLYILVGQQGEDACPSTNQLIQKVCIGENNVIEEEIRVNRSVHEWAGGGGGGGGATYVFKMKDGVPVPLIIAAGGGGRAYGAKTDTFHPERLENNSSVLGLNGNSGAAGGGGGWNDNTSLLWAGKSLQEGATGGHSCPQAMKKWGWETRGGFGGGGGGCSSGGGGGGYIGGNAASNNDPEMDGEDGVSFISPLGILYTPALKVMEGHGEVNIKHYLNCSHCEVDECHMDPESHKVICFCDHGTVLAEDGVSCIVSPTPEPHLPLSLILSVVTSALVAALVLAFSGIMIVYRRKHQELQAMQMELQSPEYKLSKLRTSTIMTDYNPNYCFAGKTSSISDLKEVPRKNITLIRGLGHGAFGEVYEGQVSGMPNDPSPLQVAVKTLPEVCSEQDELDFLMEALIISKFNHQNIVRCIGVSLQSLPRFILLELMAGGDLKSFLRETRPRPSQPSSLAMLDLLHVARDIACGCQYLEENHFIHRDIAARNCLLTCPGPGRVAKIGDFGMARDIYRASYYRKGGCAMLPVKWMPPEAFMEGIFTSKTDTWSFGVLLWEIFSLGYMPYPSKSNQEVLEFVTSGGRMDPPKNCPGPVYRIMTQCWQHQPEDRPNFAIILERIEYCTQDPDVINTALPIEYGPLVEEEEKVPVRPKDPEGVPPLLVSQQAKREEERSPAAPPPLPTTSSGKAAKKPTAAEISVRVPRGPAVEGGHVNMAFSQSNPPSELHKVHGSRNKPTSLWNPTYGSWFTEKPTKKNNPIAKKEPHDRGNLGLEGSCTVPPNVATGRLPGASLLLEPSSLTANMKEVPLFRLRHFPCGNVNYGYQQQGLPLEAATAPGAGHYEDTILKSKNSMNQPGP
UniProt P10398: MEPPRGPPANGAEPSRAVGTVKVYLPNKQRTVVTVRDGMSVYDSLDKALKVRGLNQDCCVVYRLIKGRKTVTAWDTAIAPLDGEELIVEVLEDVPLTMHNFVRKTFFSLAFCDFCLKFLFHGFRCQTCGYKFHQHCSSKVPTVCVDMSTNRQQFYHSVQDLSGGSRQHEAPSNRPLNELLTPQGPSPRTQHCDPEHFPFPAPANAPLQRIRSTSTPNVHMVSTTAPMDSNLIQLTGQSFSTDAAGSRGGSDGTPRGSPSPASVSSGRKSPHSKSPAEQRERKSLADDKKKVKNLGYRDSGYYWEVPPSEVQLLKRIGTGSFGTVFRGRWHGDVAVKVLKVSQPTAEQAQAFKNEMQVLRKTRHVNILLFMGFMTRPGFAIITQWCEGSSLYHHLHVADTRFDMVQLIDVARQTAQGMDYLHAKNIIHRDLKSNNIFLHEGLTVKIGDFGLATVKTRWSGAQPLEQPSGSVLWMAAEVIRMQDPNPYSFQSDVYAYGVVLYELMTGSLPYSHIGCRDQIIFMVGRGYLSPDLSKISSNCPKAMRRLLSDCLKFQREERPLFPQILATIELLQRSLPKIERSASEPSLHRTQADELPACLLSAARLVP
UniProt O14965: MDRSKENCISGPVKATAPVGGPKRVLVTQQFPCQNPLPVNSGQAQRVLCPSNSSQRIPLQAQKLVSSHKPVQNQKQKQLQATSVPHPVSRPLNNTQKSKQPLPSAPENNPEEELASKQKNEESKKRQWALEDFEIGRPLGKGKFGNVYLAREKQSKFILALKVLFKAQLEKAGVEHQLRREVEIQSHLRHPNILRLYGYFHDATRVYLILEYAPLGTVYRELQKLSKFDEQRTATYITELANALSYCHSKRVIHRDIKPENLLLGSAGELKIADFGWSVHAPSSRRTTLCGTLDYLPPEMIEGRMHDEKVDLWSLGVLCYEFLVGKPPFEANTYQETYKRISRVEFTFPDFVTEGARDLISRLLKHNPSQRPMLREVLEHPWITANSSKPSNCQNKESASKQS
UniProt Q96GD4, whole entry: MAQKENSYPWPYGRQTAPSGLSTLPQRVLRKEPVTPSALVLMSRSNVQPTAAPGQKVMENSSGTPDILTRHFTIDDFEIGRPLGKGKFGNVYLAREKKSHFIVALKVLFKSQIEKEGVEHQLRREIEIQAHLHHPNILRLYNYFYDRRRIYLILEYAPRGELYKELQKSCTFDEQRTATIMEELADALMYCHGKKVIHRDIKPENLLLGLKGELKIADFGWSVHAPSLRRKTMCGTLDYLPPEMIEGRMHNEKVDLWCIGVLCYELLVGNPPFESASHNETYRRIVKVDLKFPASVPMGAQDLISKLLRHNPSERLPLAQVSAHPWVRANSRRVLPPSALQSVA
UniProt Q9UQB9: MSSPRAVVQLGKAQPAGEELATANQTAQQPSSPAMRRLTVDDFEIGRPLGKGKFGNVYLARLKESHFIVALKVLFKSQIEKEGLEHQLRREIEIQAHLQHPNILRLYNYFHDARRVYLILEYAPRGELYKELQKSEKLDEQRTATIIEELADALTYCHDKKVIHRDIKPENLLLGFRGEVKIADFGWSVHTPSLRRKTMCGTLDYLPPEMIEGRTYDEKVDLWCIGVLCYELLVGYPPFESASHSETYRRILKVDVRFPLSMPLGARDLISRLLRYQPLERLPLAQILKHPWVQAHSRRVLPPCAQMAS
UniProt P51813: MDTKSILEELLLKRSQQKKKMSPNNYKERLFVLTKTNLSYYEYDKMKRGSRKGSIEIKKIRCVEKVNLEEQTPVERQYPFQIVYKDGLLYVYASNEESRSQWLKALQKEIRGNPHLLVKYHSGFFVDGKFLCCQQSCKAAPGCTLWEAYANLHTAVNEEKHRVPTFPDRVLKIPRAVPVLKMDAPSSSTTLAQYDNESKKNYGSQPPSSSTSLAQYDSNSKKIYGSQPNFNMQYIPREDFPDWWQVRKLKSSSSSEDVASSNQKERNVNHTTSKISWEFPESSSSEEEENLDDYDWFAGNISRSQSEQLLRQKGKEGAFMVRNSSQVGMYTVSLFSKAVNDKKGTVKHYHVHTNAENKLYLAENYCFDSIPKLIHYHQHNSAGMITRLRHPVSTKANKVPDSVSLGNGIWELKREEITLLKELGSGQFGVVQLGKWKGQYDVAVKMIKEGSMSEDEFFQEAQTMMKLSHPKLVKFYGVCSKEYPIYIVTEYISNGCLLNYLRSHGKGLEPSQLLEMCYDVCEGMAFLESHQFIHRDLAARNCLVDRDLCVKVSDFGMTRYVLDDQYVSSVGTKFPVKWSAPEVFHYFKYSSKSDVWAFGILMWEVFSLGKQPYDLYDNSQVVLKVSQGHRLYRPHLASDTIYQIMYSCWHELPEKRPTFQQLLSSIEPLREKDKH
UniProt P15056, whole entry, looked up: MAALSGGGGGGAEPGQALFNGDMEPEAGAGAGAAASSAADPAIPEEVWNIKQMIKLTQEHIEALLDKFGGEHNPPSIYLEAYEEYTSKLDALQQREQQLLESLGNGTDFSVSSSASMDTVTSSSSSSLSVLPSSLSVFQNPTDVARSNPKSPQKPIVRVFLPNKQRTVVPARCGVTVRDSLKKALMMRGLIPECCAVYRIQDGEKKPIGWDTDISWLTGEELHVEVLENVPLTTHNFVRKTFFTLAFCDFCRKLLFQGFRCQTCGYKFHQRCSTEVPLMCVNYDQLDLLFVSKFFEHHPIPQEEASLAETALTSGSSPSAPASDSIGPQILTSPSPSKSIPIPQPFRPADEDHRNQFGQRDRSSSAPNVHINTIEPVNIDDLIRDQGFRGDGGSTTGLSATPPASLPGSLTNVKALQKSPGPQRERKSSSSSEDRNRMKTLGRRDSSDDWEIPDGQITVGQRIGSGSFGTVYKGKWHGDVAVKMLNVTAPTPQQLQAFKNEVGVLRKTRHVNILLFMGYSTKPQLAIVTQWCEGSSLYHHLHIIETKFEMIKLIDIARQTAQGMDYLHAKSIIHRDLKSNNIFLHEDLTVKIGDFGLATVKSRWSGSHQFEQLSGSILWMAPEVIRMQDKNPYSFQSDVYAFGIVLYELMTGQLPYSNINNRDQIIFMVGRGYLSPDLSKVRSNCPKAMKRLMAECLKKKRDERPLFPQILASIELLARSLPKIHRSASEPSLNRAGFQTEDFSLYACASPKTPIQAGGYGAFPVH

Assays:
Experiment in all cases: kinase-Nluc reporter destabilization hit call (1 = scored as downregulated) (binary); higher = compound decreases kinase abundance
Conditions in all cases: K562; 2-18 h
ABL1 = ABL1 (UniProt P00519)
AKT1 = AKT1 (UniProt P31749)
ALK = ALK (UniProt Q9UM73)
ARAF = ARAF (UniProt P10398)
AURKA = AURKA (UniProt O14965)
AURKB = AURKB (UniProt Q96GD4)
AURKC = AURKC (UniProt Q9UQB9)
BLK = BLK (UniProt P51451)
BMX = BMX (UniProt P51813)
BRAF = BRAF (UniProt P15056)

| SMILES | kinase-Nluc reporter destabilization hit call (ABL1) | kinase-Nluc reporter destabilization hit call (AKT1) | kinase-Nluc reporter destabilization hit call (ALK) | kinase-Nluc reporter destabilization hit call (ARAF) | kinase-Nluc reporter destabilization hit call (AURKA) | kinase-Nluc reporter destabilization hit call (AURKB) | kinase-Nluc reporter destabilization hit call (AURKC) | kinase-Nluc reporter destabilization hit call (BLK) | kinase-Nluc reporter destabilization hit call (BMX) | kinase-Nluc reporter destabilization hit call (BRAF) |
| --- | --- | --- | --- | --- | --- | --- | --- | --- | --- | --- |
| C[C@@H]1CC[C@@H](Nc2nc(NC(C)(C)C)ncc2C(N)=O)C[C@H]1O (10 µM) | inactive: 0 | inactive: 0 | inactive: 0 | inactive: 0 | inactive: 0 | inactive: 0 | inactive: 0 | inactive: 0 | inactive: 0 | inactive: 0 |
| COc1ccc(OC)c(C2C(C#N)=C(N)Oc3n[nH]c(-c4ccc5ccccc5c4)c32)c1 (stereo unspecified) (10 µM) | inactive: 0 | inactive: 0 | inactive: 0 | inactive: 0 | inactive: 0 | inactive: 0 | inactive: 0 | inactive: 0 | inactive: 0 | inactive: 0 |
| Cc1nc2sccn2c(=O)c1CCN1CCC(=C(c2ccccc2)c2ccc(F)cc2)CC1 (10 µM) | inactive: 0 | inactive: 0 | inactive: 0 | inactive: 0 | inactive: 0 | inactive: 0 | inactive: 0 | inactive: 0 | inactive: 0 | inactive: 0 |
| O=C(NCCN1CCCC1)c1cc(-c2ccc(CN3CCOCC3)cc2)nc2ccc(F)cc12 (10 µM) | inactive: 0 | inactive: 0 | inactive: 0 | inactive: 0 | inactive: 0 | inactive: 0 | inactive: 0 | inactive: 0 | inactive: 0 | inactive: 0 |
| Oc1cc(O)c2cc(O)c(-c3cc(O)c(O)c(O)c3)[o+]c2c1 [Delphinidin (chloride)] (10 µM) | inactive: 0 | inactive: 0 | inactive: 0 | inactive: 0 | inactive: 0 | inactive: 0 | inactive: 0 | inactive: 0 | inactive: 0 | inactive: 0 |
| Cn1cc(-c2ccc3nnc(Sc4ccc5ncccc5c4)n3n2)cn1 (10 µM) | inactive: 0 | inactive: 0 | inactive: 0 | inactive: 0 | inactive: 0 | inactive: 0 | inactive: 0 | inactive: 0 | inactive: 0 | inactive: 0 |
| C[C@@H]1COCCN1c1cc(C2([S@@](C)(=N)=O)CC2)nc(-c2ccnc3[nH]ccc23)n1 [(S)-Ceralasertib] (10 µM) | inactive: 0 | inactive: 0 | inactive: 0 | inactive: 0 | inactive: 0 | inactive: 0 | inactive: 0 | inactive: 0 | inactive: 0 | inactive: 0 |
| O=Nc1c(-c2c(O)[nH]c3ccc(I)cc23)[nH]c2ccccc12 [5-Iodo-indirubin-3'-monoxime] (10 µM) | inactive: 0 | inactive: 0 | inactive: 0 | inactive: 0 | inactive: 0 | inactive: 0 | inactive: 0 | inactive: 0 | inactive: 0 | active: 1 |
| COCCNc1nc2ccc(C#CC3(O)CCCCC3)cc2n1-c1ccnc(N)n1 (10 µM) | inactive: 0 | inactive: 0 | inactive: 0 | inactive: 0 | inactive: 0 | inactive: 0 | inactive: 0 | inactive: 0 | inactive: 0 | inactive: 0 |
| FC(F)c1nc2ccccc2n1-c1nc(N2CCOCC2)nc(N2CCOCC2)n1 (2 µM) | inactive: 0 | inactive: 0 | inactive: 0 | inactive: 0 | inactive: 0 | inactive: 0 | inactive: 0 | inactive: 0 | inactive: 0 | inactive: 0 |
| Cn1cnc(Cn2ccc3ccc(CNCc4[nH]c5ccccc5c4[C@H]4NC(=O)c5ccc(O)cc54)cc32)c1 (10 µM) | inactive: 0 | inactive: 0 | inactive: 0 | inactive: 0 | inactive: 0 | inactive: 0 | inactive: 0 | inactive: 0 | inactive: 0 | inactive: 0 |
| O=S(=O)(NCCCN1c2ccccc2CCc2ccc(Cl)cc21)c1ccc(OC(F)(F)F)cc1 (2.5 µM) | inactive: 0 | inactive: 0 | inactive: 0 | inactive: 0 | inactive: 0 | inactive: 0 | inactive: 0 | inactive: 0 | inactive: 0 | inactive: 0 |
| CC(=O)c1c(C)cc2cccc(O)c2c1O [Nepodin] (10 µM) | inactive: 0 | inactive: 0 | inactive: 0 | inactive: 0 | inactive: 0 | inactive: 0 | inactive: 0 | inactive: 0 | inactive: 0 | inactive: 0 |
| CC(C)(O)CNc1ncc(-c2ccnc(Nc3ccnc(Cl)c3)n2)c(CC2CC2)n1 (2.5 µM) | inactive: 0 | inactive: 0 | inactive: 0 | inactive: 0 | inactive: 0 | inactive: 0 | inactive: 0 | inactive: 0 | inactive: 0 | inactive: 0 |
| CN(C)CCCOc1ccc(-c2ccc3ncc4c(c3c2)n(C2CCOCC2)c(=O)n4C)cn1 (2 µM) | inactive: 0 | inactive: 0 | inactive: 0 | inactive: 0 | inactive: 0 | inactive: 0 | inactive: 0 | inactive: 0 | inactive: 0 | inactive: 0 |
| Cc1[nH]c(/C=C2\C(=O)Nc3ccc(F)cc32)c(C)c1C(=O)N[C@H]1CCN(C(=O)N(C)C)C1 [Vorolanib] (10 µM) | inactive: 0 | inactive: 0 | inactive: 0 | inactive: 0 | inactive: 0 | inactive: 0 | inactive: 0 | inactive: 0 | inactive: 0 | inactive: 0 |
| CCS(=O)(=O)Nc1ccc2[nH]c(O)c(C(=Nc3ccc(CN4CCCCC4)cc3)c3ccccc3)c2c1 [Hesperadin] (2.5 µM) | inactive: 0 | inactive: 0 | inactive: 0 | inactive: 0 | inactive: 0 | inactive: 0 | inactive: 0 | inactive: 0 | inactive: 0 | inactive: 0 |
| CC1=C(C(=O)O)N2C(=O)[C@@H](NC(=O)[C@H](N)C3=CCC=CC3)[C@H]2SC1 [Cephradine] (10 µM) | inactive: 0 | inactive: 0 | inactive: 0 | inactive: 0 | inactive: 0 | inactive: 0 | inactive: 0 | inactive: 0 | inactive: 0 | inactive: 0 |
| C[C@@H]1CCN(C(=O)CC#N)C[C@@H]1N(C)c1ncnc2[nH]ccc12 [Tofacitinib (citrate)] (10 µM) | inactive: 0 | inactive: 0 | inactive: 0 | inactive: 0 | inactive: 0 | inactive: 0 | inactive: 0 |  | inactive: 0 | inactive: 0 |
| CCN1CCN(Cc2ccc(-c3cc4c(N[C@H](C)c5ccccc5)ncnc4[nH]3)cc2)CC1 (2.5 µM) | inactive: 0 | inactive: 0 | inactive: 0 | inactive: 0 | inactive: 0 | inactive: 0 | inactive: 0 | inactive: 0 | inactive: 0 | inactive: 0 |
| O=C(O)CCC(=O)Nc1ccc(Br)cn1 [Bikinin] (10 µM) | inactive: 0 | inactive: 0 | inactive: 0 | inactive: 0 | inactive: 0 | inactive: 0 | inactive: 0 | inactive: 0 | inactive: 0 | inactive: 0 |
| Cc1ccccc1-c1c2nccc(-c3ccc(F)cc3F)c2cc[n+]1[O-] (10 µM) | inactive: 0 | inactive: 0 | inactive: 0 | inactive: 0 | inactive: 0 | inactive: 0 | inactive: 0 | inactive: 0 | inactive: 0 | inactive: 0 |
| COc1cc(Nc2ncc(F)c(Nc3ccc4c(n3)NC(=O)C(C)(C)O4)n2)cc(OC)c1OC [R406 (free base)] (10 µM) | inactive: 0 | inactive: 0 | inactive: 0 | inactive: 0 |  | inactive: 0 | inactive: 0 | inactive: 0 |  | inactive: 0 |
| CCc1cc2c(cc1N1CCC(N3CCOCC3)CC1)C(C)(C)c1[nH]c3cc(C#N)ccc3c1C2=O [Alectinib] (10 µM) | inactive: 0 | inactive: 0 |  | inactive: 0 | inactive: 0 | inactive: 0 | inactive: 0 | inactive: 0 | inactive: 0 | inactive: 0 |
| CCS(=O)(=O)c1ncc(Cl)c(C(=O)N(Cc2ccc(Cl)cc2)Cc2ccco2)n1 (2.5 µM) | inactive: 0 | inactive: 0 | inactive: 0 | inactive: 0 | inactive: 0 | inactive: 0 | inactive: 0 | inactive: 0 | inactive: 0 | inactive: 0 |
| CC#CC(=O)Nc1ccc2ncnc(Nc3cccc(Br)c3)c2c1 (10 µM) | inactive: 0 | inactive: 0 | inactive: 0 | inactive: 0 | inactive: 0 | inactive: 0 | inactive: 0 | inactive: 0 | inactive: 0 | inactive: 0 |
| O=C1NC(=O)/C(=C\c2cccc(C(F)(F)F)c2)S1 (2.5 µM) | inactive: 0 | inactive: 0 | inactive: 0 | inactive: 0 | inactive: 0 | inactive: 0 | inactive: 0 | inactive: 0 | inactive: 0 | inactive: 0 |

Shown bar-delimited: part of the list above.
SMILES | kinase-Nluc reporter destabilization hit call (ABL1) | kinase-Nluc reporter destabilization hit call (AKT1) | kinase-Nluc reporter destabilization hit call (ALK) | kinase-Nluc reporter destabilization hit call (ARAF) | kinase-Nluc reporter destabilization hit call (AURKA) | kinase-Nluc reporter destabilization hit call (AURKB) | kinase-Nluc reporter destabilization hit call (AURKC) | kinase-Nluc reporter destabilization hit call (BLK) | kinase-Nluc reporter destabilization hit call (BMX) | kinase-Nluc reporter destabilization hit call (BRAF)
CC1=C(C(=O)O)N2C(=O)[C@@H](NC(=O)[C@H](N)C3=CCC=CC3)[C@H]2SC1 [Cephradine] (10 µM) | inactive: 0 | inactive: 0 | inactive: 0 | inactive: 0 | inactive: 0 | inactive: 0 | inactive: 0 | inactive: 0 | inactive: 0 | inactive: 0
C[C@@H]1CCN(C(=O)CC#N)C[C@@H]1N(C)c1ncnc2[nH]ccc12 [Tofacitinib (citrate)] (10 µM) | inactive: 0 | inactive: 0 | inactive: 0 | inactive: 0 | inactive: 0 | inactive: 0 | inactive: 0 |  | inactive: 0 | inactive: 0
